Assays:
Type in all cases: cell-based
[1] = system: HCT116 cells; assay: MTT antiproliferative assay, HCT116 cells; settings: Homo sapiens, HCT-116, read-out: IC50 ± SD HCT116
[2] = system: HepG2 cells; assay: MTT antiproliferative assay, HepG2 cells; settings: Homo sapiens, HepG2, read-out: IC50 ± SD HepG2
[3] = system: normal human fibroblast cell line (WI-38); assay: MTT cytotoxicity assay, normal human fibroblast cell line WI-38; settings: WI-38, read-out: IC50 ± SD WI-38

CC[C@H](CO)Nc1nc(NCc2ccccc2)c2ncn(C(C)C)c2n1 [Roscovitine, reference compound]
IC50 [1]: 12.2 ± 1.17 µM | IC50 [2]: 13.8 ± 1.15 µM | IC50 [3]: 17.3 µM
